Assay [1] has as its target T1, wild type ApoE peptide KLH-…-CONH2 (human).
T1 sequence (peptide, C-terminal amide (CONH2); printed with KLH on the added N-terminal cysteine): CTEELRVRLASHLRK
The experiment in a line: ELISA of the monoclonal 25F1-2 antibody purified from cloned hybridoma, O.D. 450 nm against antibody concentration. On the technique in general: An ELISA detects its analyte on a solid surface through an enzyme-linked reagent.

By UniProt entry, the sequences of proteins in these tests, tags left out. Where a name states a change or a piece, a line headed by the entry shows the natural chain unless it says otherwise.
UniProt P02649: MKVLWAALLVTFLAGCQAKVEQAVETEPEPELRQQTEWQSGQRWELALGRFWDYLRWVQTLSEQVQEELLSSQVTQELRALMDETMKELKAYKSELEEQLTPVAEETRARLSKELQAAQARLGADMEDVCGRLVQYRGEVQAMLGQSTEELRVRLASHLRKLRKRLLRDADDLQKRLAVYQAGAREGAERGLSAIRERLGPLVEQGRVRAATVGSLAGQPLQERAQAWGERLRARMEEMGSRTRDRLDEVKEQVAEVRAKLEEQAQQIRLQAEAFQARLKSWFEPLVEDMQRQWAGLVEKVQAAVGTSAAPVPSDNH

In assay [2] the target is C-terminal wild type ApoE3 recombinant protein (human) (UniProt P02649). The experiment in a line: ELISA on His-captured ApoE proteins.
Assay [3] shares this target. Kind of assay: ELISA screening (FIG. 33).

Results are given in words; binding and its absence hold for the method and conditions named. Some binding calls cover weakened binding; strength is not graded here.

B1: antibody 25F1-2 (antibody, V domains shown)
VH: EVQLQQSGAELVRPGALVKWSCKASGFNIKDYHIHWVKQRPEQGLDWIGWIDPEIDKTLYDPKFQGKARITADTSSNTAYLQLSSLTSEDTAVYYCARGTARASFDYWGQGTTLTVSS
VL: DIVLTQSPASLAVSLGQRATISCKASQSVDYDGDTYMNWYQQKPGQPPKLLIYTASNLESGIPARFSGSGSGTDFTLNIHPVEEVDAATYYCQQSNEDPWTFGGGTKLEIK
notes: also called 25F1-2 antibody serum; monoclonal antibody hybridoma supernatant 25F1-2
As to B1, the binding entry is reported as “no binding (tested: 1000 ng/mL)” in assay [1], “binds” in assay [2] and “binds” in assay [3].

The record behind these values is patent publication US20240287165A1 (GENERAL HOSPITAL, published 2024).
